In assay [1] the target is TbTim10-Myc (Trypanosoma brucei) (UniProt Q57ZF1). Description: co-IP; digitonin-solubilized (1%) mitochondrial extract, anti-myc agarose beads, 12 h at 4°C, 50 mM Tris pH 7.2, 50 mM NaCl, 10% glycerol; washes with 0.1% digitonin; bound proteins detected by immunoblot. In general terms: Immunoblotting shows a protein as a band on a membrane.
For assay [2], the target named is TbTim9-Myc (Trypanosoma brucei) (UniProt Q57XQ4). The description is as above.
Assay [3] addresses TbTim10 Gal4 fusion (TbTim10-AD / TbTim10-BD) (Trypanosoma brucei) (UniProt Q57ZF1). Description: two-hybrid; Gal4 AD (pGADT7) and BD (pGBKT7) fusions cotransformed into S. cerevisiae Y2H Gold; growth on SD -leu/-trp/-his with 0 to 5.0 mM 3-amino-1,2,4-triazole, 30°C, 3 to 5 days.

By UniProt entry, the sequences of proteins in these tests, tags left out. Where a name states a change or a piece, a line headed by the entry shows the natural chain unless it says otherwise.
UniProt Q57ZF1: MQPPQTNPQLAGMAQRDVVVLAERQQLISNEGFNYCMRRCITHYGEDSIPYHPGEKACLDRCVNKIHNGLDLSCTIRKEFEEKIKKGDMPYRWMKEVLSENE
UniProt Q57XQ4: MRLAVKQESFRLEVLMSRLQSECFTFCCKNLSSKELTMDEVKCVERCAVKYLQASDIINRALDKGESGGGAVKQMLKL
UniProt Q382K7: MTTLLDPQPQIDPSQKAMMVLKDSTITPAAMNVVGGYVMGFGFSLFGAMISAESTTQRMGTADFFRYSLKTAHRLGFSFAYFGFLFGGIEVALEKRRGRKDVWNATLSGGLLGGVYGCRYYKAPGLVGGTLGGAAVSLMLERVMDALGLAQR
UniProt Q586M2: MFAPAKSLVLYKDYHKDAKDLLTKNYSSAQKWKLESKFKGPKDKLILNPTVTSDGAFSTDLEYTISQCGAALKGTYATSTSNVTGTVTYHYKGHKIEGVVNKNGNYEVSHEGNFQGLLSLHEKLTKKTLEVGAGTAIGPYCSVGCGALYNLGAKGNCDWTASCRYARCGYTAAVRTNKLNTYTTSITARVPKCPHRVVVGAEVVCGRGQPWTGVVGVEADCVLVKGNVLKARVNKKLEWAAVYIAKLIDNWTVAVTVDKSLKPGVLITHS
UniProt Q388C4: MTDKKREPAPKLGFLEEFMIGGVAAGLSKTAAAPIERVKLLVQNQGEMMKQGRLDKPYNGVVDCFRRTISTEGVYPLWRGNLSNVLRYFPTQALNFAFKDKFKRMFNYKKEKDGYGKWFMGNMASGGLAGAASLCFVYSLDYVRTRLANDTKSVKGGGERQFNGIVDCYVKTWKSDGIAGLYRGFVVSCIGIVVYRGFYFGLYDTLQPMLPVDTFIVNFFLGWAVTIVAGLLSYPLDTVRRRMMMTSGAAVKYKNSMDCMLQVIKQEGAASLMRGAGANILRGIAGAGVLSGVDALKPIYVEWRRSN

The record followed here is publication PMC6010621.

No constants are given. Whether binding was seen depends on the method and setting. Binding can be weak; no strength is given. For some assays here: In cells and extracts the contact can be indirect.

As for “T. brucei Tim17 (TbTim17) (from UniProt Q382K7)”, the binding entry in assay [1] and in assay [2] was “binds” throughout.
Consider “voltage-dependent anion channel protein (VDAC) (from UniProt Q586M2)”, for which, in assay [2], the binding entry is “no binding”.
Consider “TbTim9 Gal4 fusion (TbTim9-AD / TbTim9-BD) (from UniProt Q57XQ4)”, for which the binding result in assay [3] is “binds weakly”.
Take “T. brucei ADP/ATP carrier (TbAAC) (from UniProt Q388C4)”: the binding result in assay [2] is reported as “no binding”.
